Experimental data from patent US5162203A, “Methods of measuring isozymes and isozyme classes of alcohol dehydrogenase” (President and Fellows of Harvard College, priority 1989, dated 1992).

Assay: Class I and Class II ADH levels in human sera
Type: biochemical

B1: Class II ADH: human liver Class II alcohol dehydrogenase (protein, UniProt P08319 1-380, looked up)
All-trans-retinol …: MGTKGKVIKCKAAIAWEAGKPLCIEEVEVAPPKAHEVRIQIIATSLCHTDATVIDSKFEGLAFPVIVGHEAAGIVESIGPGVTNVKPGDKVIPLYAPLCRKCKFCLSPLTNLCGKISNLKSPASDQQLMEDKTSRFTCKGKPVYHFFGTSTFSQYTVVSDINLAKIDDDANLERVCLLGCGFSTGYGAAINNAKVTPGSTCAVFGLGGVGLSAVMGCKAAGASRIIGIDINSEKFVKAKALGATDCLNPRDLHKPIQEVIIELTKGGVDFALDCAGGSETMKAALDCTTAGWGSCTFIGVAAGSKGLTIFPEELIIGRTINGTFFGGWKSVDSIPKLVTDYKNKKFNLDALVTHTLPFDKISEAFDLMNQGKSVRTILIF
With B1 the “normal serum ADH activity” value (17 healthy volunteers) was 15.3 nM/min, the “concentration in normal human serum” value (based on kcat of 1500 min^-1) was 0.51 ± 0.22 nM and the “molar excess of Class II over Class I ADH” value (sera with elevated ADH) was 2-3 fold. The “concentration in serum sample of FIG. 7” value (serum sample used for inhibition profile) was ~ 0.1 μM.
